Data from patent US20170172937A1, “SYSTEMS AND METHODS FOR PREPARING SOLID LIPID NANOPARTICLES” (University of Mississippi, priority 2014, published 2017).
At least one compound was matched to its structure with a doubt left.

Experiment: In vitro drug release (paddle dissolution / dialysis bag technique)
Format: physicochemical
Conditions: at the end of 5 h; phosphate buffer pH 7.4 with 0.3% SDS, 37° C.

CC(C)OC(=O)C(C)(C)Oc1ccc(C(=O)c2ccc(Cl)cc2)cc1 [Crude FBT, Fenofibrate]
drug released: 41%
